# According to publication PMC7819943, “Rice protein-binding microarrays: a tool to detect cis-acting elements near promoter regions in rice”:
# The other results are listed elsewhere or left out.
# Molecular target: T1, OsSMF1 (Oryza sativa, UniProt Q6ZLB0 1-436)
# T1 sequence: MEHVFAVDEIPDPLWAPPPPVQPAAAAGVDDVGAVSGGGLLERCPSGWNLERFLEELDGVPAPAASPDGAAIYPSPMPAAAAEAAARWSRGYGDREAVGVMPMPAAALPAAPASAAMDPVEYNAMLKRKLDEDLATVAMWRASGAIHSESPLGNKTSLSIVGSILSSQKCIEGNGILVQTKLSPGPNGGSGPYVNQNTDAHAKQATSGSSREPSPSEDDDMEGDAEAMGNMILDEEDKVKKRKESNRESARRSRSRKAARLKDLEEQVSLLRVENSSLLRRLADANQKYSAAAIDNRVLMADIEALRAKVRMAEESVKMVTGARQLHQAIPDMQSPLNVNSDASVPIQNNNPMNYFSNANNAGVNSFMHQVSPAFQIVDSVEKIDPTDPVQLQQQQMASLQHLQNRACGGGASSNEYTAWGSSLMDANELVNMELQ
# Assay: protein-binding microarray (RPBM); PBS, 2% BSA, 51.3 ng/ul salmon testes DNA, 50 uM zinc acetate, 200 nM TF, 25 C, 1 h; high values mean tight binding
# Settings: protein: recombinant; tags: N-terminal polyhistidine and DsRed monomer fusion (pET32a); chain copies: 2; label: CyDye5-dUTP incorporated in the synthesized complementary strand; 3' TTTTT single-stranded linker to array surface; dsDNA, one strand shown
# Method in brief: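 Per-feature fluorescence intensity (arbitrary units), read on an Axon 4000B scanner, is the binding signal. Transcription factors carrying an N-terminal polyhistidine tag and DsRed fusion were expressed in E. coli BL21-CodonPlus and purified on Ni–NTA. A custom Agilent array, made double-stranded by primer extension with Cy5-dUTP and blocked with 2% BSA, was incubated with 200 nM protein in PBS, 2% BSA, salmon testes DNA and 50 µM zinc acetate at 25 °C for 1 h and then washed.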
row,Sequence,binding signal
1,GCGAAAGTCGGTTGAATTGTGGCATCATTCTCAAATTCTGCGGAGTCACCTAGTGCAG,3170 fluorescence intensity (a.u.)
2,CTCTTGTCCTCAAGGTGAGTAGACAAGTACACATTTGTGTCGGAGTCACCTAGTGCAG,3680 fluorescence intensity (a.u.)
3,GCATCATCGTGGTGTCGTCTCTTCCACGTCAACCGTATTACGGAGTCACCTAGTGCAG,14200 fluorescence intensity (a.u.)
4,ATTGTCGAGGAAGTTACCACGTAAATTTGTTCTTGCTTTTCGGAGTCACCTAGTGCAG,3320 fluorescence intensity (a.u.)
5,GATGCCCTGACGTCCGTGCACACGTGGCTGGTCTTAGTCTCGGAGTCACCTAGTGCAG,19400 fluorescence intensity (a.u.)
6,TTTTAGTTATTACGCACCCCACGTACGGTATAGTATGTGTCGGAGTCACCTAGTGCAG,4040 fluorescence intensity (a.u.)
7,TGCTCTAATGGATTGATGACGCTTGAACTGTGACGGTGTACGGAGTCACCTAGTGCAG,5500 fluorescence intensity (a.u.)
8,AGGCAGTTACCAGTACTCTTTCTTGATTCAAAGGAGCACACGGAGTCACCTAGTGCAG,3790 fluorescence intensity (a.u.)
9,GCTTTGCATAGGCACTTTCAAAACTAGATATTAGTAACGCCGGAGTCACCTAGTGCAG,51000 fluorescence intensity (a.u.)
10,ACGATTTCTTCTCCACGCAGCAAGAGCCGATCGATCATTGCGGAGTCACCTAGTGCAG,3150 fluorescence intensity (a.u.)
11,CTCCCATTTGCGCAGCATTCCTTCGTGGCTTGGTGGTGTACGGAGTCACCTAGTGCAG,3170 fluorescence intensity (a.u.)
12,GGTCGCCGTCACCCCTCGTCAGCGACGCGCACGTCGCCACCGGAGTCACCTAGTGCAG,4430 fluorescence intensity (a.u.)
13,TAGACCGACATATCTTAAGATTGACAAAGTCGCCATATCACGGAGTCACCTAGTGCAG,3290 fluorescence intensity (a.u.)
14,GTTCTTGTCTCAGGGAAGATGAAACTGAATTCAACAATGACGGAGTCACCTAGTGCAG,29400 fluorescence intensity (a.u.)
15,ATGCGCTTACTATCTTGCAGCATTCCATCGCTGGTCCTTTCGGAGTCACCTAGTGCAG,4160 fluorescence intensity (a.u.)
16,AATGGTGTAATCATGGCGAATATGGTGTAGCATCAAAATCCGGAGTCACCTAGTGCAG,3330 fluorescence intensity (a.u.)
17,TAGATCATATAGCAGAGAGAGAGAGAGAGAGAGAGAGAGACGGAGTCACCTAGTGCAG,29600 fluorescence intensity (a.u.)
18,GACGAATCTTTTGAGGCTAATTACGCCATGATTTGATAATCGGAGTCACCTAGTGCAG,3200 fluorescence intensity (a.u.)
19,ATATCAGTAAACAATATGTATGGGTCACAAAGAGTATGTGCGGAGTCACCTAGTGCAG,3480 fluorescence intensity (a.u.)
20,TTATATTTTGGGACGGAGTGAGTATGTGTGAATGCGATGTCGGAGTCACCTAGTGCAG,3210 fluorescence intensity (a.u.)
21,GTAATCTTGTTCATCATCCTCATCGAGGAGCTTGAGGTATCGGAGTCACCTAGTGCAG,3770 fluorescence intensity (a.u.)

# Random excerpt: two entries already listed
row,Sequence,binding signal
4,ATTGTCGAGGAAGTTACCACGTAAATTTGTTCTTGCTTTTCGGAGTCACCTAGTGCAG,3320 fluorescence intensity (a.u.)
10,ACGATTTCTTCTCCACGCAGCAAGAGCCGATCGATCATTGCGGAGTCACCTAGTGCAG,3150 fluorescence intensity (a.u.)

# Carrying on.

row,Sequence,binding signal
1,GGTGAGGATGACATGTGGGGCCCACGTGGGCCCCACCATTCGGAGTCACCTAGTGCAG,5840 fluorescence intensity (a.u.)
2,TTGAATCGATTCCCTTGCCTCACCTCGCTGTTGTCGCCGACGGAGTCACCTAGTGCAG,3460 fluorescence intensity (a.u.)
3,AATCAGAGAACGGATCTTATTGCTTGCCTCAAGTTGATTGCGGAGTCACCTAGTGCAG,28800 fluorescence intensity (a.u.)
4,GCCATTCTCCGCTCGAAGGGGATCGATGTTGTGGATGGGTCGGAGTCACCTAGTGCAG,3210 fluorescence intensity (a.u.)
5,TCTCCTTTTGATAACTGGTACAACTCACCAATCTCAATGCCGGAGTCACCTAGTGCAG,3520 fluorescence intensity (a.u.)
6,GGCAAGTAACTCAACAAGGTGTTTATGTTCTATTGTAAAACGGAGTCACCTAGTGCAG,12500 fluorescence intensity (a.u.)
7,CACTACTATGACTCGTGGGACCCCACAGACTCGCAGAGCGCGGAGTCACCTAGTGCAG,5640 fluorescence intensity (a.u.)
8,GTGACCGCCACGCCCGCTCCGCCGTCGGCCGCACACACGCCGGAGTCACCTAGTGCAG,6210 fluorescence intensity (a.u.)
9,ACTTTCTGATGTGAGGTATTGGTTGCCGCGTTGTCCTCTGCGGAGTCACCTAGTGCAG,5740 fluorescence intensity (a.u.)
10,TGATCGGGATGACACGGCTGCTGCTGCTGTTGCTGCTTCCCGGAGTCACCTAGTGCAG,5840 fluorescence intensity (a.u.)
11,CCTCCAAAATCCTAGGATGTGTCACATCCTTCCACAATCCCGGAGTCACCTAGTGCAG,3860 fluorescence intensity (a.u.)
12,GGCGAACGCGTCGGCCCTGTCAGCGCCGCCTCGCGCGCCCCGGAGTCACCTAGTGCAG,5160 fluorescence intensity (a.u.)
13,GAAGCAGCCGCGTCCGCAGTCGAAGCGCCCGCCTCAGCAGCGGAGTCACCTAGTGCAG,3690 fluorescence intensity (a.u.)
14,TGTCAGGTGACTGTACTGGATGGATAATTTTCGGCCCAAACGGAGTCACCTAGTGCAG,3960 fluorescence intensity (a.u.)
15,AACCGGGACTACAAAGGGTTTCTCCACCAGTGACGTGTAACGGAGTCACCTAGTGCAG,17600 fluorescence intensity (a.u.)
16,AAATCAAATGAGGCCACCTAAACATTCCTTTCCTGAAAATCGGAGTCACCTAGTGCAG,21600 fluorescence intensity (a.u.)
17,GTCTACGGCCCATCAGTTCGTAATGACCGGAATTTCGGCCCGGAGTCACCTAGTGCAG,3360 fluorescence intensity (a.u.)
18,AGAATGTTCCAGTTTCTGAGAATGACTCATCTTCTGGAGACGGAGTCACCTAGTGCAG,9620 fluorescence intensity (a.u.)
19,GCAACAATGCCGTCACTGACTCGCCGCTCTGCTGCACGGACGGAGTCACCTAGTGCAG,3480 fluorescence intensity (a.u.)
20,ACGCACACGCTGCCAACTAACCGGTGGGCCCGTCAATCCACGGAGTCACCTAGTGCAG,3690 fluorescence intensity (a.u.)
21,CCGACGTTACGAACGTTTTAGGTGGGCCCCACGGTTTCTCCGGAGTCACCTAGTGCAG,17000 fluorescence intensity (a.u.)
